Source: patent publication US11220527B2, “Peptides derived from the propeptide NTSR3 and their use in the treatment of depression” (CENTRE NATIONAL DE LA RECHERCHE SCIENTIFIQUE, priority 2016, dated 2022)
At least one structure is not confirmed: it was looked up by name or label, or the drawing left a doubt. Where a SMILES comes first, the peptide text is derived from it. The star is where a group is joined. Biotin = O=C1N[C@H]2[C@H](CS[C@H]2CCCCC(=O)*)N1

Target: T1, TREK-1 channel (Homo sapiens, UniProt O95069)
T1 sequence (O95069 1-426): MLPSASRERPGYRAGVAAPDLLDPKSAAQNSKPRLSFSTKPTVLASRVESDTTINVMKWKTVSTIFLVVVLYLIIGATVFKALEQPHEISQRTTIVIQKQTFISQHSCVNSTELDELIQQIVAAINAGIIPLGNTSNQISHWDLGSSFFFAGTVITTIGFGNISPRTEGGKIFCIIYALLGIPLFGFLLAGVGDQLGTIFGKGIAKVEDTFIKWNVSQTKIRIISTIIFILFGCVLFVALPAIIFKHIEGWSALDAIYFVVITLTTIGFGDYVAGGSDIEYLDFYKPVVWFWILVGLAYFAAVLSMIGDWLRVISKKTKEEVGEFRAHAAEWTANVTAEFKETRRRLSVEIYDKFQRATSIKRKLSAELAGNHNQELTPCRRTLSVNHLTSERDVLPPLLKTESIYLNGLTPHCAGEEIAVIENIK
Assay: Whole-cell patch clamp of TREK-1 channel activity in hTREK-1/HEK293 cells
Assay type: cell-based
Parameters: expressed in transfected cells
Settings: dose-response measured at 0 mV, sigmoidal fit, FIG. 2; read-out: half-effect concentration (IC50) of TREK-1 channel activity inhibition
Experimental: All experiments measuring the effect of spadin analogs and spadin were performed on ßTC3 or LNCaP or HEK293 cells stably transfected with the TREK-1 channel, hTREK-1/HEK293. The hTREK-1/HEK293 cell line was prepared in the laboratory. These cells also express a reporter gene: E-Green Fluorescent Protein (EGFP) enabling their visualization.
These cells were seeded at a density of 20,000 cells/dish of 35 mm diameter, 24 to 72 hours before being used.
The HEK293 cells were cultured in DMEM medium (Gibco)/10% fetal calf serum (FCS, ICN)/1% streptomycin+penicillin mixture (Gibco)/1% glutamax (Gibco)/0.5 mg/mL of G418 (Sigma) at 37° C. in the presence of 5% CO2.
The LNCaP cells were cultured in DMEM medium (Gibco)/10% fetal calf serum (FCS, ICN)/1% streptomycin+penicillin mixture (Gibco)/1% glutamax (Gibco)/at 37° C. in the presence of 5% CO2. […] From day 2 to day 4, the cells were measured by electrophysiological methods.
All measurements were made at room temperature, i.e. at 21-22° C. The hTREK-1/HEK293 cells were identified by the fluorescence emitted by EGFP after excitation at 480 nm. […]
The cell culture medium was replaced with a solution 150 mM NaCl, 5 mM KCl, 3 mM MgCl2, 1 mM CaCl2, 10 mM HEPES/NaOH pH 7.4 containing 10 mM tetraethylammonium chloride, 3 mM 4-aminopyridine. […] The resting potential of the membrane of the measured cell was set at −80 mV. […]

In the case of CC(C)C[C@H](NC(=O)CNC(=O)[C@H](Cc1c[nH]c2ccccc12)NC(=O)[C@H](CO)NC(=O)[C@@H](NC(=O)[C@H](C)NC(=O)CCCC[C@@H]1SC[C@@H]2NC(=O)N[C@@H]21)C(C)C)C(=O)N[C@@H](CCCNC(=N)N)C(=O)O [biotinylated G/A-PE(22-28)] (Biotin-AVSWGLR-OH; N-terminus and C-terminus assumed), the IC50 is reported as 0.13 nM.
